Assay results taken from patent US8816047B2 (Cure DM Group Holdings, LLC, priority 2007, dated 2014).
“Also recorded” adds a separate entry of the source. Part of at least one peptide drawing is inferred or uncertain, most often the ends. Where no end group is shown, it is not given here.

What was measured:
HIP receptor (EXTL3) = molecular target: T1, HIP receptor (EXTL3) (Homo sapiens, UniProt O43909); experiment: HIP receptor (EXTL3) translocation in PANC-1 cells (Cy3 immunofluorescence, Western blot); type: cell-based; conditions: for EXTL3 nuclear translocation (Western blot, words): PANC-1 cells in SFM, higher nuclear levels at 30 minutes; for HIP receptor interaction and trafficking from cytoplasmic membrane to nucleus: PANC-1 cells, Cy3 immunostaining
T1 construct: endogenous in cells; host or cells: PANC-1 (human pancreatic cell line)
T1 sequence (O43909 1-919): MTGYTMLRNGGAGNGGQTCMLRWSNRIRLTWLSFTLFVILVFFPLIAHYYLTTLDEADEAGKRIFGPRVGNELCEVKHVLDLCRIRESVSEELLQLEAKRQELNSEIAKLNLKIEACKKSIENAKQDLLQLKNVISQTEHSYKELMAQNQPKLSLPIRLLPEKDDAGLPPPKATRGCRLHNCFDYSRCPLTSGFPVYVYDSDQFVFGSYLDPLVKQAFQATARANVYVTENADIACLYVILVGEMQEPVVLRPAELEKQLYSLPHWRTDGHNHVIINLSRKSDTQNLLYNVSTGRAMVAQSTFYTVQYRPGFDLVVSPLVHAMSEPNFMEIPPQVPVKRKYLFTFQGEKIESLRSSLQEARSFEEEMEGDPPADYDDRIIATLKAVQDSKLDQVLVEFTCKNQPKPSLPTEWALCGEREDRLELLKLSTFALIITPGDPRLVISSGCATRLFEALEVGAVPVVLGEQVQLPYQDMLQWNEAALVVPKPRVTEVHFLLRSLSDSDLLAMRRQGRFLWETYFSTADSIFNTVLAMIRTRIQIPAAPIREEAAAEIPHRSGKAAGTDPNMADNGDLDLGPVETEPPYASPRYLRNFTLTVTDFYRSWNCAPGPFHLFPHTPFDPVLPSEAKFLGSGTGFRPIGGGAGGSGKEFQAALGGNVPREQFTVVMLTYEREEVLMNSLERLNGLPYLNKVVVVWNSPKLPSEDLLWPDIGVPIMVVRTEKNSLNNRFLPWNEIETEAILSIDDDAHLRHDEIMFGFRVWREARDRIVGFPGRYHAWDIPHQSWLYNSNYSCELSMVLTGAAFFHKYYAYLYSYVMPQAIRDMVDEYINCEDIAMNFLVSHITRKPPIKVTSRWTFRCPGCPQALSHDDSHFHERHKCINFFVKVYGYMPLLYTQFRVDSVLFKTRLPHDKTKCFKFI

PANC-1 cells [1] = experiment: Western blot of human insulin expression in PANC-1 cells; type: cell-based; conditions: 167 nM once a day for four days, non-reducing conditions
PANC-1 cells [2] = experiment: Cell morphology of PANC-1 cells treated with HIP peptides; type: cell-based, human; conditions: treated four days, observed through 7 days, 200× magnification
diabetic mice = experiment: Streptozocin diabetic mouse model, 28 days twice-daily IP dosing (Example 2); type: in vivo; conditions: for lower mean glucose versus control: 250 μg IP twice daily for 28 days; for Total Islet Mass (% increase) / Total Islets (% increase): increase over placebo; for differentiation of progenitor cells within the pancreas into new islet structures: introduced into diabetic mice; for Total Islet Mass / Total Islets: post-mortem pancreata, blinded histology; for islet area: treated group, FIG. 4A
Method: In Vivo Studies. HIP3, HIP1 and HIP2 has been the subject of in vivo studies in mice. […] The subject number was selected to yield a sufficient number of diabetic animals for the study and animals were randomly assigned to study groups. All animals were dosed via intraperitoneal injections twice daily (am and pm) for 28 consecutive days. The timing of dose administration remained consistent (±2 hours) during the dosing phase.
Mice were injected intraperitoneally with streptozocin at 40 mg/kg in citrate buffer, pH 4.5, on 5 consecutive days in an attempt to render them diabetic. […] If the blood glucose level in any animal rose to above 400 mg/dL, the animal was treated with insulin. Every 3 days, at the same time each day, a nick was made on the tail and a drop of blood was collected. Glucose measurements were determined using a glucose meter. Group assignments and dose levels were as follows in Table 1:
Study endpoints included the following: changes in glucose; changes in insulin requirements; and histology of post-mortem pancreata.

[3] = test system: STZ-induced diabetes mouse model; experiment: STZ-induced diabetes mouse model, HIP2 vs HIP2B vs placebo, 39 days (Example 12); type: in vivo; conditions: for mean nonfasting glucose: day 38, end of intervention; for fasting glucose at study end: fasted overnight before sacrifice, Day 39; for blood glucose levels versus control group: over the course of the study
[4] = test system: human pancreatic ductal tissue; experiment: Insulin levels by radioimmunoassay in cultured human pancreatic ductal and islet fractions; type: cell-based; conditions: human ductal tissue cultured with peptide, repeated studies
[5] = test system: ductal fraction of human pancreatic cells; experiment: HIP2B in human pancreatic ductal cell culture, staining for CK19, nuclei and insulin; type: cell-based; conditions: ductal cells cultured 10 days in collagen matrix, treated every other day
[6] = test system: STZ-induced diabetes mouse model; experiment: Dose response study of HIP2B in STZ-rendered diabetic mice (Example 13); type: in vivo

Row | Substance | EXTL3 nuclear translocation (Western blot, words) (HIP receptor (EXTL3)) | HIP receptor interaction and trafficking from cytoplasmic membrane to nucleus (HIP receptor (EXTL3)) | insulin production (Western blot, words) (PANC-1 cells [1]) | cell morphology changes (PANC-1 cells [2]) | lower mean glucose versus control (diabetic mice; STZ diabetic mice) | Total Islet Mass (% increase) (diabetic mice) | Total Islets (% increase) (diabetic mice) | differentiation of progenitor cells within the pancreas into new islet structures (diabetic mice) | Total Islet Mass (diabetic mice) | Total Islets (diabetic mice) | islet area (diabetic mice) | mean nonfasting glucose [3] | fasting glucose at study end [3] | blood glucose levels versus control group [3] | also measured
1 | IGLHDPTQGTEPNG [HIP2, Ile-Gly-Leu-His-Asp-Pro-Thr-Gln-Gly-Thr-Glu-Pro-Asn-Gly] | enhanced EXTL3 nuclear translocation | stimulated traffic from the HIP receptor on the cytoplasmic membrane into the nucleus | more insulin production than the HIP2 PEGylated or control | deviate significantly from their initial appearance | 29.4% | 153% | 62% | stimulate differentiation of progenitor cells within the pancreas into new islet structures | 2161782 μm2 | 454 | 360,297 μm(2) | 231.6 mg/dL | 115.3 mg/dL | significant decrease in blood glucose levels | day by which mice were completely insulin-free (diabetic mice; 250 μg IP twice daily, STZ diabetic mice): ≤ 21 days; increase in insulin levels by radioimmunoassay [4]: four-fold
2 | IGLHDPTQGTEPNGE [HIP3, Ile-Gly-Leu-His-Asp-Pro-Thr-Gln-Gly-Thr-Glu-Pro-Asn-Gly-Glu] |  |  |  |  | 57.3% | 99% | 46% | stimulate differentiation of progenitor cells within the pancreas into new islet structures | 1703513 μm2 | 410 | 283,918 μm(2) |  |  |  | 
3 | Ac-IGLHDPTQGTEPNG-NH2 [HIP2B, Ac-Ile-Gly-Leu-His-Asp-Pro-Thr-Gln-Gly-Thr-Glu-Pro-Asn-Gly-NH2] | enhanced EXTL3 nuclear translocation | as effective as HIP2; also recorded: stimulated traffic from the HIP receptor on the cytoplasmic membrane into the nucleus | more insulin production than the HIP2 PEGylated or control | deviate significantly from their initial appearance |  |  |  |  |  |  |  | 235.3 mg/dL | 106.7 mg/dL | significant decrease in blood glucose levels | islet number in diabetic mice (diabetic mice; FIG. 4B insulin immunostaining): increases islet number; morphological changes and insulin expression [5]: morphological changes that induced insulin expression in otherwise insulin negative cells; efficacy / disease attenuation at low doses ([6]; 0.1 and 1 micrograms BID (0.01 and 0.1 mg/kg)): diminished efficacy signal; also recorded: disease attenuation over that of the placebo; usable dosage relative to that of HIP2 ([6]; IP, STZ-rendered diabetic mice): approximately 10%; attenuation of diabetes, of the maximum disease state seen in the placebo group ([6]; dose levels 1000, 100 and 10 micrograms BID): 60-70%; human dose equivalent of lowest optimal dose ([6]; extrapolated to humans): 0.5 to 1.0 mg/kg; lowest dose level that will provide optimal efficacy ([6]; in mice): 1-10 micrograms BID; fasting glucose levels ([3]; FIG. 20): restoring fasting glucose levels to nondiabetic ranges; glucose tolerance testing ([3]; close of the study, FIG. 21): lower glucose levels; rate of change in glucose levels (regeneration speed, slope) ([3]; days 1-39): −0.602; activity in vivo relative to HIP 2 ([3]; mouse, in vivo): have not diminished activity in vivo
